{"source": "PubChem BioAssay AID624297", "about": "(National Center for Advancing Translational Sciences (NCATS), 2012)", "note": "Among all 340,000 compounds or so, about 6,200 (1.8%) were called active. This list was built around the results that the source calls inconclusive (neither active nor inactive); the mix of calls is not that of the screen. The call rests on the fitted dose curve; in most records, active means well fitted activation curve with a large enough effect; inconclusive means small, poorly fitted or top-dose-only effect; inactive means no such curve, though single readings can be large or run the other way. A potency beside an inconclusive call is a rough fit, not a confirmed value. Potency means the concentration at half of the fitted maximal effect.", "data": [{"test": "A quantitative high throughput screen for small molecules that induce DNA re-replication in SW480 colon adenocarcinoma cells; further: nearly all actives have a fitted effect of over 55% in size; on re-replication activation: % of control where 0% means no effect.", "conditions": "Hoechst DNA content imaging, 48 h; re-replication activation: at 46.1 µM (top of the series) unless noted", "procedure,_shortened": "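250 cells/well; 23 nL cpd via pin tool; 48 hr, 37 C, 5% CO2; Hoechst 40 min; imager read of total nuclear intensity, ex 405/em 500-530 nm.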", "values": [{"smiles": "CCCN(C(=O)Cc1c(C(=O)O)n(C)c2ccccc12)c1cccc(C)c1", "re-replication activation": "inactive: -4.33%"}, {"smiles": "CSc1ccc(/C=C/C(=O)N2CCN(c3ccccn3)CC2)cc1", "re-replication activation": "inactive: -2.3%"}, {"smiles": "CC(C)(C)n1nc2c(c1NC(=O)C1CC(=O)N(c3ccc(Cl)cc3)C1)CS(=O)(=O)C2", "note": "(centres undefined)", "re-replication activation": "inactive: -0.404%"}, {"smiles": "O=C1c2ccccc2C(=O)C1c1ccc(O)cc1", "Potency": "inconclusive: 29.1 µM [activator, single point]"}, {"smiles": "COc1ccc(S(=O)(=O)N2CCC(C(=O)NCC3CC3)CC2)cc1", "Potency": "inconclusive: 0.447 µM [activator, full curve, poor fit]"}, {"smiles": "Nc1ccc(-c2cc(-c3cccc(N)c3)nc(-c3ccccc3)n2)cc1", "Potency": "inconclusive: 29.1 µM [activator, single point]"}, {"smiles": "O=C(CCn1ccc2cc(S(=O)(=O)N3CCCC3)ccc21)NCc1cccc(F)c1", "Potency": "inconclusive: 29.1 µM [activator, single point]"}, {"smiles": "Cn1cc(C(=O)N2CCc3ccccc3C2)c(=O)c2cc(S(=O)(=O)N3CCCCC3)ccc21", "Potency": "inconclusive: 29.1 µM [activator, partial curve, poor fit]"}, {"smiles": "Cc1oc(S(=O)(=O)N2CCOCC2)cc1C(=O)Nc1ccc(F)cc1", "Potency": "inconclusive: 2.91 µM [activator, partial curve, poor fit]"}, {"smiles": "CC1(C)Cc2c(c(N3CCOCC3)nc3sc4c(NCCN)ncnc4c23)CO1", "Potency": "inconclusive: 23.1 µM [activator, single point]"}, {"smiles": "O=C(CCS(=O)(=O)c1ccc(F)cc1)Nc1nnc(-c2cccs2)o1", "Potency": "inconclusive: 29.1 µM [activator, partial curve, poor fit]"}, {"smiles": "O=C(c1ccccc1)c1ccc2cc(O)ccc2c1", "Potency": "inconclusive: 23.1 µM [activator, partial curve, poor fit]"}, {"smiles": "COC(=O)c1cc(S(=O)(=O)NCC2CCN(Cc3cccc(F)c3)CC2)c[nH]1", "Potency": "inconclusive: 29.1 µM [activator, single point]"}, {"smiles": "Cc1ccc(S(=O)(=O)N2CCCCC2)cc1NC(=O)c1cncc(Br)c1", "re-replication activation": "inactive: -19.3%"}, {"smiles": "COc1ccc(C2NC(C(=O)O)CS2)cc1COCC(F)(F)F", "note": "(centres undefined)", "re-replication activation": "inactive: 11.1%"}, {"smiles": "COc1ccc(C(c2c(C)[nH][nH]c2=O)c2c(C)[nH][nH]c2=O)cc1Br", "re-replication activation": "inactive: -7.33%"}, {"smiles": "COc1ccc(OC)c(NC(=O)CSCc2cnn(-c3ccccc3)c2-n2cccc2)c1", "re-replication activation": "inactive: 0.867%"}, {"smiles": "COCCNC(=O)c1ccc2c(c1)nc(C)n2-c1cccc(F)c1", "re-replication activation": "inactive: 4.52%"}, {"smiles": "COc1ccc(S(=O)(=O)N2CCC3(CC2)CC(=O)c2ccccc2O3)cc1C", "re-replication activation": "inactive: 3.68%"}, {"smiles": "CC(NC(=O)CN(c1cccc(C(F)(F)F)c1)S(=O)(=O)c1ccc(Cl)c([N+](=O)[O-])c1)c1ccccc1", "note": "(centres undefined)", "Potency": "inconclusive: 7.31 µM [activator, partial curve]"}, {"smiles": "Cc1ccc2[nH]c(=O)c(C(c3nnnn3C3CCCC3)N(Cc3cccnc3)Cc3ccco3)cc2c1", "note": "(centres undefined)", "Potency": "inconclusive: 16.4 µM [activator, partial curve, poor fit]"}, {"smiles": "O=C(/C=C/c1ccccc1)COC(=O)c1ccccc1", "Potency": "inconclusive: 23.1 µM [activator, partial curve, poor fit]"}, {"smiles": "COC(=O)[C@]1(Cc2ccccc2)N[C@H](CN(C)C(=O)Nc2ccc(F)cc2)[C@@H]2C(=O)N(Cc3ccccc3)C(=O)[C@@H]21", "Potency": "inconclusive: 5.8 µM [activator, single point]"}, {"smiles": "Cc1ccc(S(=O)(=O)N(CC2CO2)c2cccc([N+](=O)[O-])c2)cc1", "note": "(centres undefined)", "Potency": "active: 18.4 µM"}, {"smiles": "O=C1/C(=C/c2cccs2)NC(=S)N1C1CC1", "Potency": "active: 18.4 µM"}, {"smiles": "O=C(Nc1ccc(Cl)cc1)OCc1cc(-c2ccccc2Cl)on1", "Potency": "inconclusive: 9.2 µM [activator, partial curve, poor fit]"}, {"smiles": "O=C(/C=C/c1cccs1)N1CCC2(CC1)Oc1ccc(Cl)cc1C(=O)C21CC(c2cccnc2)=NO1", "note": "(centres undefined)", "Potency": "inconclusive: 29.1 µM [activator, single point]"}, {"smiles": "Cc1ccc(S(=O)(=O)N(C)C[C@@H]2Oc3ccc(NC(=O)CCC(F)(F)F)cc3CC(=O)N([C@@H](C)CO)C[C@@H]2C)cc1", "Potency": "active: 3.66 µM"}, {"smiles": "COCCNC(=O)CSc1cc(=O)n(C)c2cc(Cl)ccc12", "re-replication activation": "inactive: 2.25%"}, {"smiles": "Cc1ccc(S(=O)(=O)c2nc(S(C)(=O)=O)sc2N2CCCC2)cc1", "Potency": "inconclusive: 4.11 µM [activator, full curve, poor fit]"}, {"smiles": "COc1ccc(C(=O)Nc2ccccc2-c2nnn(CC(=O)N3CCOCC3)n2)cc1", "Potency": "inconclusive: 0.092 µM [activator, full curve, poor fit]"}, {"smiles": "NS(=O)(=O)c1ccc(NC(=S)NCc2ccc(Cl)cc2)cc1", "re-replication activation": "inactive: 1.42%"}, {"smiles": "Cc1cccc2nc(-c3cccc(NC(=O)c4ccc(Cl)cc4)c3)cn12", "re-replication activation": "inactive: -7.34%"}, {"smiles": "CN(C)CCNc1ncnc2c1sc1nc(N3CCCC3)c3c(c12)CC(C)(C)OC3", "Potency": "inconclusive: 20.6 µM [activator, single point]"}, {"smiles": "CCOC(=O)C1CCCN(C(=O)CSc2ccc(Br)cc2)C1", "note": "(centres undefined)", "Potency": "inconclusive: 18.4 µM [activator, single point]"}, {"smiles": "COc1ccc2cc(C(=O)C3CCCN(Cc4cnc(C)s4)C3)ccc2c1", "note": "(centres undefined)", "Potency": "inconclusive: 9.2 µM [activator, partial curve, poor fit]"}, {"smiles": "COc1ccc(S(=O)(=O)Oc2ccc3ccccc3c2)cc1", "Potency": "inconclusive: 29.1 µM [activator, single point]"}, {"smiles": "CSc1ncnc2sc(C)c(C)c12", "Potency": "inconclusive: 29.1 µM [activator, single point]"}, {"smiles": "Cc1c(NC(=O)Nc2cccc(C(F)(F)F)c2)c(=O)n(-c2ccccc2)n1C", "re-replication activation": "inactive: -1.17%"}, {"smiles": "COc1ccc(OCCOc2ccc(C)nc2[N+](=O)[O-])cc1", "Potency": "inconclusive: 14.6 µM [activator, single point]"}, {"smiles": "Cc1cc(C)c(OCC(=O)N(Cc2ccc(N(C)C)cc2)C2CCS(=O)(=O)C2)c(C)c1", "note": "(centres undefined)", "re-replication activation": "inactive: 6.6%"}, {"smiles": "COc1cc(CNCCO)cc(Cl)c1OCc1ccccc1Cl", "Potency": "inconclusive: 23.1 µM [activator, partial curve, poor fit]"}, {"smiles": "O=C(Nc1cccc(S(=O)(=O)N2CCCCC2)c1)C1COc2ccccc2O1", "note": "(centres undefined)", "re-replication activation": "inactive: -2.44%"}, {"smiles": "CN1CCN(C(=O)C2CC(=O)N(c3ccc(Cl)cc3)C2)CC1", "note": "(centres undefined)", "re-replication activation": "inactive: -13.1%"}, {"smiles": "O=C(Nc1ccccc1C(F)(F)F)c1cnccn1", "Potency": "inconclusive: 16.4 µM [activator, single point]"}, {"smiles": "CCOC(=O)c1cnc(Nc2nc3ccccc3o2)nc1CSC(=S)N1CCCCC1", "Potency": "inconclusive: 2.91 µM [activator, partial curve, poor fit]"}, {"smiles": "COc1ccc(CCNC(=O)c2cc(C(=O)c3cc(Cl)ccc3O)cn(CCc3ccc(OC)cc3)c2=O)cc1", "Potency": "inconclusive: 25.9 µM [activator, partial curve, poor fit]"}, {"smiles": "CC(C)(C)NC(=O)C1Cc2ccccc2CN1C(=O)Nc1cccc(Cl)c1", "note": "(centres undefined)", "Potency": "inconclusive: 0.651 µM [activator, full curve, poor fit]"}, {"smiles": "O=C1c2ccccc2-c2nccnc21", "re-replication activation": "inactive: -8.21%"}, {"smiles": "COc1ccc(S(=O)(=O)Cc2ccc(C(=O)N3CCN(c4ccccc4)CC3)o2)cc1", "re-replication activation": "inactive: -0.85%"}, {"smiles": "COC(=O)c1ccc(/C=C2\\Oc3ccccc3NC2=O)cc1", "Potency": "inconclusive: 2.91 µM [activator, full curve, poor fit]"}, {"smiles": "COC(=O)C(Nc1ccccc1Cl)(c1cc(C)c(O)c(C)c1)C(F)(F)F", "note": "(centres undefined)", "re-replication activation": "inactive: -2.23%"}, {"smiles": "COc1nc(N)nc(NC(=O)c2cccs2)c1N=O", "Potency": "active: 5.17 µM"}, {"smiles": "CCCc1ccc(Oc2cc(NN3CCCCC3)c([N+](=O)[O-])cc2[N+](=O)[O-])cc1", "Potency": "inconclusive: 25.9 µM [activator, partial curve, poor fit]"}, {"smiles": "O=C(Nc1cc(S(=O)(=O)Nc2ccc(Cl)cc2)ccc1O)c1ccc(S(=O)(=O)N2CCCCCC2)cc1", "re-replication activation": "inactive: 14.2%"}, {"smiles": "Cc1ccc(-c2cc(C(=O)NCc3ccccn3)c3ccccc3n2)cc1C", "Potency": "inconclusive: 0.0517 µM [activator, full curve, poor fit]"}, {"smiles": "CC(=O)c1cccc(Nc2c3c(nc4ccccc24)CCC3)c1", "Potency": "active: 5.8 µM"}, {"smiles": "CC(C)Cn1c(SCC(=O)N2CC(=O)Nc3ccccc32)nc2ccccc21", "Potency": "inconclusive: 6.51 µM [activator, single point]"}, {"smiles": "COc1ccc(C=O)cc1COc1ccccc1F", "Potency": "inconclusive: 20.6 µM [activator, single point]"}, {"smiles": "C=C(C(=O)c1ccccc1)C(CC(=O)c1ccccc1)c1ccccc1", "note": "(centres undefined)", "Potency": "active: 18.4 µM"}, {"smiles": "COc1ccc2c(C)cc(SCc3c(C)noc3C)nc2c1", "Potency": "inconclusive: 29.1 µM [activator, partial curve, poor fit]"}, {"smiles": "Nc1nc(-c2ccc(Cl)cc2)nnc1-c1ccc(Br)cc1", "re-replication activation": "inactive: -0.928%"}, {"smiles": "O=C(N/N=C1\\CC2CC=CC12)c1ccc(O)cc1", "note": "(centres undefined)", "re-replication activation": "inactive: 16%"}, {"smiles": "CC(=NCCc1c(C)[nH]c2ccc(C)cc12)C1=C(O)CC(c2ccccc2)CC1=O", "note": "(centres undefined)", "Potency": "active: 6.51 µM"}, {"smiles": "CCN(C(=O)COC(=O)c1ccccc1NCCO)c1cccc2ccccc12", "Potency": "inconclusive: 7.31 µM [activator, partial curve, poor fit]"}, {"smiles": "CCC(=O)Nc1c(C#N)c2nc3ccccc3nc2n1C1CCCCC1", "Potency": "inconclusive: 16.4 µM [activator, partial curve]"}, {"smiles": "Cc1cccn2c(CNCCc3ccccn3)c(C(=O)N3CCOCC3)nc12", "Potency": "inconclusive: 0.092 µM [activator, full curve, poor fit]"}, {"smiles": "COc1cc(CN2CCC(N3CCC(C(=O)N4CCCC4)CC3)CC2)cc2c1OCO2", "Potency": "inconclusive: 22.4 µM [activator, partial curve, poor fit]"}, {"smiles": "CCC1=Nc2cc(C(=O)NCCCOC)ccc2Sc2ccccc21", "Potency": "active: 1.3 µM"}]}]}
